{"source": "PubChem BioAssay AID504774, Drosophila RNAi Screening Center | 2011", "assay": "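Knock-downs that shift viability of MMS-exposed cells relative to untreated ones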 (primary screen)", "system": "Drosophila Kc167 cells", "reagents": "long dsRNA against Drosophila genes, about 0.25 µg dsRNA per well", "time to read-out": "about 6 days: 3 days knock-down, then 3 days with or without MMS", "treatment": "methyl methanesulphonate 0.004% (w/v) for 3 days after knock-down", "measured": "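ATP-dependent luminescence as a measure of live cells in MMS-exposed wells, quantile normalised within each plate, with replicate values also given as a mean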", "direction": "mean viability with MMS and viability with MMS: higher = more surviving cells after MMS", "note": "In all, the deposit lists about 23,000 reagents; shown is a random part of those that have a named target and a result. 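Values are quantile-normalised luminescence on an arbitrary scale; higher means more cells surviving MMS.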 A plus sign joins genes that one reagent is predicted to hit. Not all columns of the deposit are shown."}
{"Target gene": "Slc25A46a", "PubChem SID": "SID104199917", "mean viability with MMS": 3.53e6, "viability with MMS, replicate 1": 3.95e6}
{"Target gene": "CG12992", "PubChem SID": "SID104199304", "mean viability with MMS": 3.49e6, "viability with MMS, replicate 1": 3.87e6}
{"Target gene": "CG18682 (retired record)", "PubChem SID": "SID104195165", "mean viability with MMS": 3.38e6, "viability with MMS, replicate 1": 3.87e6}
{"Target gene": "CG18682 (retired record)", "PubChem SID": "SID104195166", "mean viability with MMS": 3.32e6, "viability with MMS, replicate 1": 3.95e6}
{"Target gene": "Pdzd8 (PDZ domain containing 8)", "PubChem SID": "SID104199147", "mean viability with MMS": 3.31e6, "viability with MMS, replicate 1": 3.77e6}
{"Target gene": "Pglym87 (Phosphoglyceromutase 87)", "PubChem SID": "SID104195044", "mean viability with MMS": 3.66e6, "viability with MMS, replicate 1": 4.15e6}
{"Target gene": "CG30379", "PubChem SID": "SID104184862", "mean viability with MMS": 3.44e6, "viability with MMS, replicate 1": 3.94e6}
{"Target gene": "CG15642", "PubChem SID": "SID104199470", "mean viability with MMS": 3.59e6, "viability with MMS, replicate 1": 4.05e6}
{"Target gene": "CG34284", "PubChem SID": "SID104194565", "mean viability with MMS": 3.61e6, "viability with MMS, replicate 1": 4.14e6}
{"Target gene": "tsg (twisted gastrulation)", "PubChem SID": "SID104200172", "mean viability with MMS": 3.58e6, "viability with MMS, replicate 1": 4.07e6}
{"Target gene": "Rh4 + sina", "PubChem SID": "SID104191188", "mean viability with MMS": 3.72e6, "viability with MMS, replicate 1": 4.17e6}
{"Target gene": "Mettl2 (Methyltransferase like 2)", "PubChem SID": "SID104188190", "mean viability with MMS": 3.58e6, "viability with MMS, replicate 1": 4.02e6}
{"Target gene": "CG3036", "PubChem SID": "SID104180052", "mean viability with MMS": 3.54e6, "viability with MMS, replicate 1": 4.07e6}
{"Target gene": "CG3036", "PubChem SID": "SID104180354", "mean viability with MMS": 3.37e6, "viability with MMS, replicate 1": 3.60e6}
{"Target gene": "CG6012", "PubChem SID": "SID104182713", "mean viability with MMS": 3.52e6, "viability with MMS, replicate 1": 4.10e6}
{"Target gene": "ss (spineless)", "PubChem SID": "SID104196861", "mean viability with MMS": 3.49e6, "viability with MMS, replicate 1": 4.00e6}
{"Target gene": "Gr22d (retired record)", "PubChem SID": "SID104201343", "mean viability with MMS": 3.54e6, "viability with MMS, replicate 1": 4.04e6}
{"Target gene": "sni (sniffer)", "PubChem SID": "SID104197562", "mean viability with MMS": 3.57e6, "viability with MMS, replicate 1": 4.26e6}
{"Target gene": "CG12929", "PubChem SID": "SID104186034", "mean viability with MMS": 3.47e6, "viability with MMS, replicate 1": 3.99e6}
{"Target gene": "L2HGDH (L-2-hydroxyglutarate dehydrogenase)", "PubChem SID": "SID104181874", "mean viability with MMS": 3.61e6, "viability with MMS, replicate 1": 4.14e6}
{"Target gene": "Cdc42 (Cell division cycle 42)", "PubChem SID": "SID104200020", "mean viability with MMS": 3.44e6, "viability with MMS, replicate 1": 3.93e6}
{"Target gene": "Clbn (Caliban)", "PubChem SID": "SID104194196", "mean viability with MMS": 3.46e6, "viability with MMS, replicate 1": 3.85e6}
{"Target gene": "CG8646", "PubChem SID": "SID104187022", "mean viability with MMS": 3.40e6, "viability with MMS, replicate 1": 3.69e6}
{"Target gene": "l(1)10Bb (lethal (1) 10Bb)", "PubChem SID": "SID104200138", "mean viability with MMS": 3.19e6, "viability with MMS, replicate 1": 3.79e6}
{"Target gene": "CG16935", "PubChem SID": "SID104186430", "mean viability with MMS": 3.55e6, "viability with MMS, replicate 1": 4.06e6}
{"Target gene": "CG11322", "PubChem SID": "SID104181934", "mean viability with MMS": 3.80e6, "viability with MMS, replicate 1": 4.18e6}
{"Target gene": "VhaM9.7-c (Vacuolar H[+] ATPase M9.7 subunit c)", "PubChem SID": "SID104187996", "mean viability with MMS": 3.57e6, "viability with MMS, replicate 1": 4.01e6}
{"Target gene": "Pcd (pterin-4a-carbinolamine dehydratase)", "PubChem SID": "SID104196577", "mean viability with MMS": 3.53e6, "viability with MMS, replicate 1": 3.84e6}
{"Target gene": "CG10713", "PubChem SID": "SID104189578", "mean viability with MMS": 3.56e6, "viability with MMS, replicate 1": 3.96e6}
{"Target gene": "Lim3", "PubChem SID": "SID104182267", "mean viability with MMS": 3.75e6, "viability with MMS, replicate 1": 4.23e6}
{"Target gene": "Lim3", "PubChem SID": "SID104183155", "mean viability with MMS": 3.27e6, "viability with MMS, replicate 1": 3.62e6}
{"Target gene": "Lim3", "PubChem SID": "SID104201726", "mean viability with MMS": 2.81e6, "viability with MMS, replicate 1": 3.76e6}
{"Target gene": "Lim3", "PubChem SID": "SID104202053", "mean viability with MMS": 2.90e6, "viability with MMS, replicate 1": 3.68e6}
{"Target gene": "Lim3", "PubChem SID": "SID104202391", "mean viability with MMS": 3.75e6, "viability with MMS, replicate 1": 4.40e6}
{"Target gene": "bbc (bb in a boxcar)", "PubChem SID": "SID104186750", "mean viability with MMS": 3.71e6, "viability with MMS, replicate 1": 4.23e6}
{"Target gene": "bbc (bb in a boxcar)", "PubChem SID": "SID104201817", "mean viability with MMS": 3.54e6, "viability with MMS, replicate 1": 3.98e6}

Only “mean viability with MMS”, for 2 of the entries above:
Lim3 [SID104202053]	2.90e6
Lim3 [SID104202391]	3.75e6
